Data as given in PubChem BioAssay AID1159578 (Peter MacCallum Cancer Centre, 2015)

Screen: 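Knock-downs that alter how fast lymphatic endothelial cells migrate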 (primary screen)
Cell system: human lymphatic endothelial cells
Knock-down reagent: siRNA pool against human genes, 40 nM
Timing: 48 h after transfection
Read-out: 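Cells stained with dye and imaged after a scratch; covered wound area and nuclei counted, duplicates averaged, migration set against mock wells and turned into a robust z-score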
Direction: migration robust z-score: higher = faster migration into the scratch; nuclei per well: higher = more cells in the well
Hit rule: 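Migration changed when robust z exceeds 2 or falls below -2 and mean nuclei number is at least 3300; otherwise not called changed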
Meaning of the calls: active = migration changed; inactive = no migration change, or too few cells
This is a random part of about 18,000 deposited reagents. About 1,030 of all reagents (5.7%) were called active. 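Inactive calls also include pools with fewer than 3300 nuclei, whose migration was not assessed.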 The raw values are shown without normalisation. Not all columns of the deposit are shown.

After knock-down of TSR1 (TSR1 ribosome maturation factor), the record shows migration robust z-score -0.24; nuclei per well, duplicate mean 3830; inactive.
DSG4 (desmoglein 4) gave migration robust z-score -0.52; nuclei per well, duplicate mean 4532; inactive.
NACA2 (nascent polypeptide associated complex subunit alpha 2) gave migration robust z-score 0.92; nuclei per well, duplicate mean 6685; inactive.
Depletion of OCLN (occludin) gave: migration robust z-score 0.31; nuclei per well, duplicate mean 5840; inactive.
Silencing of SURF2 (surfeit 2) resulted in: migration robust z-score 0.46; nuclei per well, duplicate mean 5844; inactive.
Silencing of TIGD5 (tigger transposable element derived 5) came out at: migration robust z-score -0.84; nuclei per well, duplicate mean 5638; inactive.
After knock-down of MGAT5B, the record shows migration robust z-score 0.39; nuclei per well, duplicate mean 5273; inactive.
Silencing of TSKS (testis specific serine kinase substrate) resulted in: migration robust z-score -0.55; nuclei per well, duplicate mean 3934; inactive.
With knock-down of TTLL2 (tubulin tyrosine ligase like 2), the screen gave migration robust z-score -1.18; nuclei per well, duplicate mean 4377; inactive.
SH3PXD2B (SH3 and PX domains 2B) showed migration robust z-score 1.1; nuclei per well, duplicate mean 6179; inactive.
Against ADO (2-aminoethanethiol dioxygenase), the values are migration robust z-score -1.97; nuclei per well, duplicate mean 5946; inactive.
Silencing of TADA2A (transcriptional adaptor 2A) resulted in: migration robust z-score 0.86; nuclei per well, duplicate mean 5675; inactive.
Knock-down of PTGR2 (prostaglandin reductase 2) resulted in: migration robust z-score 0.6; nuclei per well, duplicate mean 5786; inactive.
With knock-down of PLPPR3 (phospholipid phosphatase related 3), the record shows migration robust z-score 0.88; nuclei per well, duplicate mean 5628; inactive.
Depletion of AADACL4 (arylacetamide deacetylase like 4) resulted in: migration robust z-score -1.14; nuclei per well, duplicate mean 5740; inactive.
CDIP1 (cell death inducing p53 target 1) showed migration robust z-score -1.36; nuclei per well, duplicate mean 3424; inactive.
EPS8L1 (EPS8 signaling adaptor L1) gave migration robust z-score 0.17; nuclei per well, duplicate mean 5838; inactive.
With knock-down of FOXD1 (forkhead box D1), the screen gave migration robust z-score -0.42; nuclei per well, duplicate mean 4195; inactive.
For TMEM25 (transmembrane protein 25) the deposit lists migration robust z-score -0.58; nuclei per well, duplicate mean 6288; inactive.
Knock-down of NHSL3 (NHS like 3) came out at: migration robust z-score 1.39; nuclei per well, duplicate mean 5562; inactive.
CTXN3 (cortexin 3) gave migration robust z-score 1.69; nuclei per well, duplicate mean 7002; inactive.
Against ETFA (electron transfer flavoprotein subunit alpha) the deposit lists migration robust z-score -0.94; nuclei per well, duplicate mean 3941; inactive.
With knock-down of FNDC8 (fibronectin type III domain containing 8), the record shows migration robust z-score -2.21; nuclei per well, duplicate mean 4984; active.
Depletion of PDCD11 (programmed cell death 11) gave: migration robust z-score -0.91; nuclei per well, duplicate mean 5410; inactive.
CLEC10A (C-type lectin domain containing 10A) gave migration robust z-score -0.79; nuclei per well, duplicate mean 4783; inactive.
PDE1C (phosphodiesterase 1C) showed migration robust z-score -0.34; nuclei per well, duplicate mean 6324; inactive.
TNNI3 (troponin I3, cardiac type) showed migration robust z-score 0.12; nuclei per well, duplicate mean 6710; inactive.

Reagents above with an active call, once more:
FNDC8 (fibronectin type III domain containing 8) | migration robust z-score: -2.21; nuclei per well, duplicate mean: 4984; activity call: active
